Assay results: patent publication US11952554B2, “Alkyl polyglycoside-containing cleaning formulations for chemically sensitive individuals” (Living Clean NZ, Ltd., priority 2021, dated 2024)

Test: Percent Modern Carbon (pMC), estimated from feedstocks or determined by ASTM D6866-05
Format: physicochemical
[1] = surfactant raw materials, Table 3

Structure (SMILES) | Percent Modern Carbon (pMC) [1] | Percent Modern Carbon (pMC) (surfactant feedstock chain length study, Table 5) | pMC value (ethanol derived from plant sources (fermentation)) | pMC value (ethanol made from petrochemical processes, expected)
CCCCCCCCCCCCOS(=O)(=O)[O-].[Na+] [Sodium lauryl sulfate] | 0% |  |  | 
CCCCCCCCOS(=O)(=O)[O-].[Na+] [Sodium octyl sulfate (from bio-basis), Sodium octyl sulfate] | 100% | 100% |  | 
CCO [ethanol] |  |  | 100% | 0%
